Screening data, single-dose tests

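Phenotypic screen: M. tuberculosis growth, cholesterol and DPPC medium, 4 days; the read-out is not stated. Compounds at 500 µM. Direction is inferred from retests: higher values go with more growth inhibition. About 18,000 compounds were tested under these conditions; 5% (about 900) showed 50% or more at least once.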

The filed quantity is “Percent Effect” (%).
How 0% and 100% were set is not recorded. Most values in the screen are low, and negative values occur.
The compounds are a random part of those screened.

| # | SMILES | effect |
|---|---|---|
| 1 | `NC(=O)C1CCCN(CCCc2ccccc2)C1` (centres unmarked) | 25.83% |
| 2 | `CN(Cc1ccncc1)S(=O)(=O)c1ccc(C#N)cc1` | 28.52% |
| 3 | `COC(=O)CCCC(=O)Nc1ncccc1Cl` | -21.42% |
| 4 | `CCCN1CCC(CNc2ncccc2F)C1` (centres unmarked) | -2.443% |
| 5 | `NCC1CCSCC1` | -0.8178% |
| 6 | `NCC1CCc2ccccc21` (centres unmarked) | 14.27% |
| 7 | `CC(C)C(C(=O)Nc1ccc(CCO)cc1)N(C)C` (centres unmarked) | 15.47% |
| 8 | `NC(=O)c1nnc(N)o1` | 4.09% |
| 9 | `COc1ccccc1CCNC1CCN(C(C)=O)CC1` | 5.36% |
| 10 | `COc1ccc2[nH]c(CCCN)nc2c1` | 6.81% |
| 11 | `O=C(NCc1nnc2ccccn12)C1CCOCC1` | -17.68% |
| 12 | `c1snnc1CN1CCC[C@H]2OCC[C@H]21` | 0.5606% |
| 13 | `CSc1cncc(NCCC(=O)N2CCCC2)n1` | 53.66% |
| 14 | `CC(C)(C)OCCOc1nnc2ccccn12` | 19.23% |
| 15 | `NC(=O)C1COCCN1C(=O)c1cccc2c1CCC2` (centres unmarked) | -0.2148% |
| 16 | `Cc1ccc(C(=O)NCCCN2CCCC2)cc1` | 11.06% |
| 17 | `NC(=O)C1Cc2ccccc2CN1Cc1nnsc1Cl` (centres unmarked) | 3.677% |
| 18 | `NCC(=O)N1CCCC(CCc2ccc(F)cc2)C1` (centres unmarked) | 76.62% |
| 19 | `CC(C)n1nc(C(=O)N(C)C)c2ccccc2c1=O` | 0.3432% |
| 20 | `Nc1ccc(C2CCCN2)nn1` (centres unmarked) | 6.847% |
| 21 | `N#Cc1ccc(CN2CCCC2=O)cc1` | 36.25% |
| 22 | `CCNC(=O)COc1cccc2ccc(C)nc12` | -0.9726% |
| 23 | `CC(C)(C)C(=O)N1CCN(C(=O)[C@@H](N)C(C)(C)C)CC1` | -14.52% |
| 24 | `Cc1cc(C(=O)NCCc2ccccc2F)[nH]n1` | 24.24% |
| 25 | `CN1CCCC(CNC(=O)N2CCSC(C)(C)C2)C1` (centres unmarked) | 6.458% |
| 26 | `CC(O)CN(C)c1cc(N2CCCCC2)ncn1` (centres unmarked) | 12.47% |
| 27 | `CCn1nc(C)cc1C(=O)NCCCc1cccnc1` | 10.2% |
| 28 | `Cc1nccc(C(=O)NC2CCc3nnc(C)n3C2)n1` (centres unmarked) | 10.53% |
| 29 | `CNC(=O)NC(=O)CCN1CCN(S(C)(=O)=O)CC1` | 50.39% |
| 30 | `N#Cc1cc(Cl)ccc1N1CCN(CCO)CC1` | 29.52% |
| 31 | `COc1cc(NCC(C)C)ccn1` | 18.25% |
| 32 | `OCc1cncc(C(F)(F)F)c1` | -2.343% |
| 33 | `CC(C)c1noc(CCNC(=O)Cc2ccncc2)n1` | 2.207% |
| 34 | `CS(=O)(=O)NCc1ccnc(O)c1` | -4.317% |
| 35 | `COc1ccc(N2CCCNCC2)cc1` | 46.73% |
| 36 | `COc1c[nH]c(C(=O)NCCSC(F)(F)F)cc1=O` | -9.302% |
| 37 | `CC(C)NS(=O)(=O)c1cccc(C(=O)NCCCO)c1` | 16.06% |
| 38 | `O=C(NCCc1nnc[nH]1)C1SCCc2ccccc21` (centres unmarked) | 12.77% |
| 39 | `Cc1ccc(OCC(=O)N(C)C)c(C)c1` | 27.45% |
| 40 | `OC(CSc1ncccc1Br)CN1CCOCC1` (centres unmarked) | 23.8% |
| 41 | `O=C(CNc1ncnc2sccc12)N1CCCC1` | -22.97% |
| 42 | `CCCc1ccc(C(=O)N[C@@H]2CCOC[C@H]2O)cc1` | 12.75% |
| 43 | `CC(C)n1cncc1CO` | -0.6209% |
| 44 | `NC1CCN(C2CC2)C1=O` (centres unmarked) | -12.7% |
| 45 | `Cc1nc(C)c(C(=O)N[C@@H]2CCNC[C@H]2O)s1` | -2.928% |
| 46 | `NCC1CCCN(c2ncccn2)C1` (centres unmarked) | 20.29% |
| 47 | `CC1CCN(S(=O)(=O)N(C)CC(N)=O)CC1` | -16.81% |
| 48 | `CCN(C(=O)NCCc1ccco1)C(C)CS(C)(=O)=O` (centres unmarked) | -13.62% |
| 49 | `Cn1ccnc1C1CCCN1` (centres unmarked) | -10.66% |
| 50 | `CCN1CCC(NC(=O)C2CCCC2)CC1` | 8.132% |
| 51 | `COCCCNC(=O)CN1CCCC1c1ccc(C)o1` (centres unmarked) | 27.6% |
| 52 | `CCN(CC(=O)NCc1ccccn1)CC1CCOC1` (centres unmarked) | 1.683% |
| 53 | `Cc1noc(CCNC(=O)NCCc2ccccn2)n1` | -1.735% |
| 54 | `Cc1c[nH]c(CN(C)Cc2ccc(N(C)C)nc2)n1` | 12.87% |

Repeated from the top, 6 entries:

SMILES	effect
NC(=O)C1CCCN(CCCc2ccccc2)C1 (centres unmarked)	25.83%
CN(Cc1ccncc1)S(=O)(=O)c1ccc(C#N)cc1	28.52%
COC(=O)CCCC(=O)Nc1ncccc1Cl	-21.42%
CCCN1CCC(CNc2ncccc2F)C1 (centres unmarked)	-2.443%
NCC1CCSCC1	-0.8178%
NCC1CCc2ccccc21 (centres unmarked)	14.27%

The values are deposited in ChEMBL (CHEMBL3988442, “University of Dundee, Small-Polar-MMV Screening Library” (2021)).